Here are results for 36 molecules from PubChem BioAssay AID2685 (National Center for Advancing Translational Sciences (NCATS), 2010).

The nature of this experiment: qHTS Assay for Lipid Storage Modulators in Drosophila S3 Cells.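 For cell number change: cells counted by Cell Tracker Red CMTPX staining in the red channel.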 The following applies: BODIPY lipid droplet fluorescence, 18-24 h; for cell number change: measured here: cell count max response, cells fed with added oleic acid. An outline of the steps:
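Drosophila S3 cells loaded with oleic acid (400 uM, as added) and compounds at several concentrations; lipid droplets imaged by 488-nm laser-scanning cytometry, 500–530 nm intensity and object ratio to cell channel. Percent activity normalized to 20 uM Triacsin C.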

Setting [1] is: measured here: cell number channel AC50, cells fed with added oleic acid.
Setting [2] is: measured here: lipid fluorescence (Fed channel) AC50, cells fed with added oleic acid.

The other results are listed elsewhere or left out. Shown are side measurements of this screen, not its main read-out; they come without a call. Most of these compounds were active or inconclusive in the main read-out, so they are no random draw. The note in brackets gives the kind of curve behind each potency; many fits are weak.

One may read the AC50 as the concentration at which the activity in the assay is half-maximal. Read a high AC50 as weaker potency. `CCOC(=O)Cc1nnc(Nc2cccc(C)c2)c2ccccc12`: the AC50 under setting [1] was 461 nM [rising, single point] and the AC50 under setting [2] was 1460 nM [rising, partial curve].

With `O=C(Cn1cnnn1)NCCc1ccc(Cl)cc1Cl`, the cell number change amounted to 10.3%. In addition, the concentration at half-maximal activity (AC50) under setting [2] was 29100 nM [rising, single point].

Turning to `Cc1cc(C)nc(NS(=O)(=O)c2ccc(NC(=O)NC3CCCCC3)cc2)n1`, the cell number change is -32%. Also, the AC50 under setting [1] is 1460 nM [falling, full curve, poor fit]. Also, the AC50 under setting [2] is 5800 nM [falling, full curve].

Regarding `COCCn1c(COc2cccc(OC)c2)nnc1SCC(=O)NC1CCCC1`, the cell number change came to 32.2%. Besides, the AC50 under setting [1] is 1030 nM [rising, full curve, poor fit]. In addition, the AC50 under setting [2] is 8200 nM [rising, partial curve].

On to `COC(=O)[C@@]1(Cc2ccc(F)cc2)[C@H]2c3cc(C(=O)N(C)C)n(Cc4ccccn4)c3C[C@H]2CN1C(=O)c1ccccc1`, for which the cell number change was -16.6%. Also, the AC50 under setting [2] is 16400 nM [falling, single point].

Turning to `Cc1ccc(C(=O)N2CCN(S(=O)(=O)c3ccccc3C#N)CC2)cc1S(=O)(=O)N1CCOCC1`, the cell number change was -10.4%. Besides, under setting [2], the AC50 is 32600 nM [rising, partial curve, poor fit].

On to `C=CCNC(=S)NNc1nc2c(c(=O)[nH]1)C1(CCCC1)Cc1ccccc1-2`, for which the cell number change was -35.8%. For the same molecule, the concentration at half-maximal activity (AC50) under setting [1] is 20600 nM [falling, single point]. In addition, under setting [2], the AC50 is 20600 nM [falling, single point].

As for `O=C(NCCCNC(=O)c1ccc(-c2cccc(Cl)c2)o1)c1cnccn1`, the cell number change was 19.7%. Under setting [1], the half-maximal activity concentration (AC50) was 651 nM [rising, full curve, poor fit]. Moreover, the concentration at half-maximal activity (AC50) under setting [2] was 35500 nM [rising, single point].

Regarding `Cc1ccccc1C(=O)OCC(=O)NCC1COc2ccccc2O1` (centres undefined), the cell number change is -18.5%. The AC50 under setting [1] was 2910 nM [rising, single point].

Take `O=C(/C=C/c1cccc(F)c1)Nc1nccs1`: the cell number change was found to be 59%. For the same molecule, the AC50 under setting [1] is 9200 nM [rising, partial curve].

As for `O=C(CCC(=O)N1CCOc2ccccc21)NCCCc1ccccc1`, the cell number change was -2.02%.

With `CCOC(=O)c1cc(C(C)=O)c(=O)n(C)c1N`, the cell number change is -3.1%. The AC50 under setting [1] is 116 nM [falling, full curve, poor fit].

As for `COc1ccc(C(=NNc2ccccc2C(=O)O)c2ccc(OC)cc2)cc1`, the cell number change is -40.4%. Besides, the AC50 under setting [1] was 29100 nM [falling, single point].

As to `CCc1cc(C(N)=O)c(NC(=O)c2ccc(OC)cc2)s1`, the cell number change amounted to 17.3%. Further, under setting [2], the AC50 is 2310 nM [rising, full curve, poor fit].

For the molecule `CCc1ccc(-c2nn[nH]n2)cc1`, the cell number change is -27.5%. For the same molecule, under setting [1], the concentration at half-maximal activity (AC50) was 92 nM [falling, full curve, poor fit]. Also, under setting [2], the concentration at half-maximal activity (AC50) was 65.1 nM [falling, full curve].

Turning to `O=C(CC1C(=O)NCCN1Cc1ccc(F)cc1Cl)NCc1ccon1` (centres undefined), the cell number change came out at 0.59%. Besides, the AC50 under setting [2] was 6510 nM [rising, partial curve, poor fit].

On to `Cc1c(-n2cc(C(=O)c3cc(Br)ccc3O)cc(C#N)c2=O)c(=O)n(-c2ccccc2)n1C`, for which the concentration at half-maximal activity (AC50) is 58 nM [falling, full curve, poor fit] under setting [1] and 116 nM [falling, full curve, poor fit] under setting [2].

For the molecule `CC1CC(C)CN(C(=O)COC(=O)CCCN2C(=O)c3cccc4cccc(c34)C2=O)C1` (centres undefined), the cell number change is -13.8%. Also, the AC50 under setting [2] is 103 nM [falling, full curve, poor fit].

In the case of `COc1ccc(C(=O)NNS(=O)(=O)c2ccc(OC)cc2)cc1`, the cell number change is -5.25%. Further, the AC50 under setting [2] is 29100 nM [rising, single point].

In the case of `Cn1c(CNC(=O)c2ccco2)nnc1SCC(=O)N1CCN(c2ccccc2F)CC1`, the cell number change is -7.62%.

For `O=C(CCc1c[nH]c2ccccc12)N1CCN(c2ccc(F)cc2)CC1`, the cell number change is 12.6%. The AC50 under setting [1] was 631 nM [falling, full curve, poor fit].

Turning to `COc1ccc(CCNC(=O)c2ccc(Cl)c(S(=O)(=O)N3CCCCCC3)c2)cc1`, the cell number change is -21.6%. For the same molecule, under setting [2], the AC50 is 651 nM [falling, partial curve, poor fit].

Regarding `CCCc1cc(C(=O)Nc2ccc(F)c(Cl)c2)no1`, the cell number change came to 24.2%. Further, the half-maximal activity concentration (AC50) under setting [2] was 25900 nM [rising, single point].

Regarding `COc1ccc(NC(=O)CN2CCC(NC(=O)C3CCCCC3)CC2)cc1`, the cell number change came out at 16.3%. For the same molecule, the concentration at half-maximal activity (AC50) under setting [2] was 2060 nM [rising, full curve, poor fit].

Turning to `CCN(Cc1ccccc1)C(=O)c1ccc(C)c(S(=O)(=O)N2CCCCC2)c1`, the cell number change was -21%. Also, under setting [2], the AC50 was 6510 nM [falling, single point].

As for `Cc1ccc(NC(=O)CN(C)C(=O)Cc2ccccc2F)cc1`, the cell number change was -9.21%. For the same molecule, under setting [2], the AC50 is 6310 nM [falling, single point].

As to `Cc1cc(NC(=O)CCC(=O)N(Cc2ccco2)C2(C(=O)NC3CCCCC3)CCN(C)CC2)no1`, the cell number change is -37.7%. The AC50 under setting [1] was 16400 nM [falling, single point]. Further, the AC50 under setting [2] was 18400 nM [falling, single point].

With `CN1CC2(C)OC(=O)C(Cl)=C2CC1c1ccccc1` (centres undefined), the cell number change is -21.1%. The AC50 under setting [2] was 130 nM [falling, full curve, poor fit].

For `CC(=O)c1cccc(NC(=S)NC(=O)c2ccc(C)cc2)c1`, the cell number change is -1.34%. For the same molecule, under setting [2], the half-maximal activity concentration (AC50) is 517 nM [falling, full curve].

As for `CC(C)NC(=O)CSc1ccccc1C(=O)N1CCN(S(=O)(=O)/C=C/c2ccccc2)CC1`, the cell number change is -0.82%.

In the case of `O=C(N/N=C/c1ccc(O)cc1)c1[nH]c2ccc(Br)cc2c1-c1ccccc1`, the cell number change turned out to be 4.65%. Further, under setting [2], the AC50 is 116 nM [falling, full curve, poor fit].

For the molecule `CNC(=S)N/N=C/c1c(C)nn(-c2ccc(F)cc2)c1Cl`, the cell number change was 9.54%.

On to `COc1ccc(CNC(=O)CSc2ccsc2[N+](=O)[O-])cc1`, for which the cell number change came to 19.6%.

For `N=c1ccn2c(n1)OC1C(O)C(CO)OC12` (centres undefined), the cell number change is -2.72%. The half-maximal activity concentration (AC50) under setting [2] is 29100 nM [falling, single point].

In the case of `Cc1ccc(NC(=S)N(Cc2ccc(Br)cc2)Cc2ccc(C(=O)O)cc2)cc1C`, the cell number change was found to be 0.323%. The AC50 under setting [1] is 1460 nM [falling, partial curve]. Also, the AC50 under setting [2] was 1460 nM [falling, partial curve, poor fit].

For `Cc1ccc(C)c(S(=O)(=O)N2CCN(C(=O)CCNS(=O)(=O)c3ccccc3)CC2)c1`, the cell number change came to 4.46%. Moreover, under setting [1], the concentration at half-maximal activity (AC50) was 6510 nM [rising, single point].
